Results on two sequences are retold here after article PMC3672139.

Chains of the proteins cited; added tags and fusions are not shown. Chains listed by the source or under a name are the forms on record and can include a tag or linker.
RB1 (human), one chain, as listed by the source: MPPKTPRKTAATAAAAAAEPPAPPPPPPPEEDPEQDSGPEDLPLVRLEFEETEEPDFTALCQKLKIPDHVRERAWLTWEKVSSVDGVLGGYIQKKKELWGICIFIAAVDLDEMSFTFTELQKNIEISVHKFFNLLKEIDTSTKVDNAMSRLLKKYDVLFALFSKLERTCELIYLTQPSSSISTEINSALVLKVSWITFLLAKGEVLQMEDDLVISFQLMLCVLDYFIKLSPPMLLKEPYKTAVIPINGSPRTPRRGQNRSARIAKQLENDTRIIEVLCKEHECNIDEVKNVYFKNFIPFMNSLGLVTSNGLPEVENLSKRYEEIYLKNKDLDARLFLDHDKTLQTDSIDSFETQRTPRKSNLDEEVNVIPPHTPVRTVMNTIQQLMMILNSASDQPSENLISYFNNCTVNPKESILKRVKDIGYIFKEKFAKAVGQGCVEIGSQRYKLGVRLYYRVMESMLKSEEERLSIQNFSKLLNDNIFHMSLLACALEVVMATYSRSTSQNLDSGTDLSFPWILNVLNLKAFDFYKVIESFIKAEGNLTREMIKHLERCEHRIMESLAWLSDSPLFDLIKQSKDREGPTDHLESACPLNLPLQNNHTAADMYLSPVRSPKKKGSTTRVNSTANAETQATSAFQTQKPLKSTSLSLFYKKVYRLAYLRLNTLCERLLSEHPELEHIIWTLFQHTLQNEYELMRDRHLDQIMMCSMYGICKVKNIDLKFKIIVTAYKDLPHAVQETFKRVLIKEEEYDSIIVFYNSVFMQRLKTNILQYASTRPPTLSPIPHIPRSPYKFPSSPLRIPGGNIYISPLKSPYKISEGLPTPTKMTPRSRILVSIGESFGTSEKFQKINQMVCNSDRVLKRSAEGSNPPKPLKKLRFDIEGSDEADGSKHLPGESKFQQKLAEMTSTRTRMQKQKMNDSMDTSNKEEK

Data set [1] has as its system RB1 (human). The data set can be described thus: EMSA. The following applies: 10 mM Tris-HCl, 150 mM NaCl, 5 mM KCl, pH 7.4; EMSA room temperature 30 min, 12% PAGE in TBE; recombinant protein; folded or branched DNA. A general note: Mobility shift assays separate free from complexed probe on a gel.
Data set [2] concerns RB1 (human). The data set can be described thus: SPR. To be noted: DNA immobilized, 650 mM NaCl; 10 mM Tris-HCl, 150 mM NaCl, 5 mM KCl, pH 7.4; SPR 25 C (RB1 SPR with 650 mM NaCl); recombinant protein; label: 5'-biotin (SPR); single-stranded DNA.

For at least one entry, the source does not settle the construct or the ends of the probe. For some assays here: Negatives hold for the conditions tested.

On to CGGGGGGTTTTGGGCGGC [RB1 G4], for which, in the data set with RB1 (human) [1], the binding result is on record as “binds”.
For the sequence CGTTTTGTTTTGGGCGGC [RB1 G4 Mut.], the binding result with RB1 (human) [2] is recorded as “no binding”.
